No constants are given. Whether binding was seen depends on the method and setting. Binding seen in cells or lysates may run through a third protein. Some binding calls cover weakened binding; strength is not graded here. Tags and fused reporters may be left off the sequences shown.

Assay [1] has as its target T1, four-and-a-half LIM domain protein 3 (FHL3), endogenous in primary human VICs (human (endogenous in primary human VICs)) (UniProt Q13643).
T1 sequence: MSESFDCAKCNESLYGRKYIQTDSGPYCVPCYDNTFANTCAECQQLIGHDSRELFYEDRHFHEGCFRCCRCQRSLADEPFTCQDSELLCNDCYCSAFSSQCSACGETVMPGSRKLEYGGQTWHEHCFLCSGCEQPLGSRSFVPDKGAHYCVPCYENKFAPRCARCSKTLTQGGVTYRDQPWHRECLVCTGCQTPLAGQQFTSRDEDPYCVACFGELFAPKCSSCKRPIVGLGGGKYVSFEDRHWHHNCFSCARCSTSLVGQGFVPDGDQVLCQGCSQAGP
Nature of the assay: co-IP; primary VICs transfected with Ad-AMBP or Ad-NC for 48 h, then OM for 10 min; lysates precipitated with FHL3 antibodies; immunoblot for P-JNK and P-ERK1/2.

The target of assay [2] is T2, C-terminal FLAG-tagged AMBP (alpha-1-microglobulin/bikunin precursor) (UniProt P02760).
T2 sequence: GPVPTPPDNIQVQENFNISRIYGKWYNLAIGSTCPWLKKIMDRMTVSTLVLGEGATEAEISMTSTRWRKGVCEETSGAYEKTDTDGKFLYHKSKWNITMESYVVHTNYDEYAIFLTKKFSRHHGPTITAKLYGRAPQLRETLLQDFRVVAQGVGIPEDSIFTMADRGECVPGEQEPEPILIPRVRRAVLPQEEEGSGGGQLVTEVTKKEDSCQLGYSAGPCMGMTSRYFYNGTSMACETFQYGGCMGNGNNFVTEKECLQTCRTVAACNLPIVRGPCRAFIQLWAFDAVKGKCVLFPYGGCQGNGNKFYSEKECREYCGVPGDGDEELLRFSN
Nature of the assay: co-IP; HEK293T transfected with Flag-tagged AMBP plasmid for 48 h; non-denaturing lysis buffer; Flag antibodies on protein A/G magnetic beads, lysate overnight at 4 °C, four washes with PBS 0.5% Tween-20; immunoblot for FHL3, CTSB and PIK3CA.

Assay [3] addresses T2, C-terminal FLAG-tagged AMBP (alpha-1-microglobulin/bikunin precursor). Nature of the assay: co-IP; HEK293T co-transfected with AMBP-Flag and full-length or truncated FHL3-HA plasmids for 48 h; lysates precipitated with Flag antibodies; immunoblot with HA antibodies.

B1: AMBP overexpressed from adenovirus (Ad-AMBP) in VICs (protein, UniProt P02760 20-352)
chain: GPVPTPPDNIQVQENFNISRIYGKWYNLAIGSTCPWLKKIMDRMTVSTLVLGEGATEAEISMTSTRWRKGVCEETSGAYEKTDTDGKFLYHKSKWNITMESYVVHTNYDEYAIFLTKKFSRHHGPTITAKLYGRAPQLRETLLQDFRVVAQGVGIPEDSIFTMADRGECVPGEQEPEPILIPRVRRAVLPQEEEGSGGGQLVTEVTKKEDSCQLGYSAGPCMGMTSRYFYNGTSMACETFQYGGCMGNGNNFVTEKECLQTCRTVAACNLPIVRGPCRAFIQLWAFDAVKGKCVLFPYGGCQGNGNKFYSEKECREYCGVPGDGDEELLRFSN
Turning to B1, the binding result in assay [1] is listed as “binds”.

B2: four-and-a-half LIM domain protein 3 (FHL3), endogenous in HEK293T (protein, UniProt Q13643 1-280)
chain: MSESFDCAKCNESLYGRKYIQTDSGPYCVPCYDNTFANTCAECQQLIGHDSRELFYEDRHFHEGCFRCCRCQRSLADEPFTCQDSELLCNDCYCSAFSSQCSACGETVMPGSRKLEYGGQTWHEHCFLCSGCEQPLGSRSFVPDKGAHYCVPCYENKFAPRCARCSKTLTQGGVTYRDQPWHRECLVCTGCQTPLAGQQFTSRDEDPYCVACFGELFAPKCSSCKRPIVGLGGGKYVSFEDRHWHHNCFSCARCSTSLVGQGFVPDGDQVLCQGCSQAGP
As to B2, the binding entry in assay [2] was “binds”.

B3: full-length FHL3 with a C-terminal HA tag (protein, UniProt Q13643 1-280)
chain: MSESFDCAKCNESLYGRKYIQTDSGPYCVPCYDNTFANTCAECQQLIGHDSRELFYEDRHFHEGCFRCCRCQRSLADEPFTCQDSELLCNDCYCSAFSSQCSACGETVMPGSRKLEYGGQTWHEHCFLCSGCEQPLGSRSFVPDKGAHYCVPCYENKFAPRCARCSKTLTQGGVTYRDQPWHRECLVCTGCQTPLAGQQFTSRDEDPYCVACFGELFAPKCSSCKRPIVGLGGGKYVSFEDRHWHHNCFSCARCSTSLVGQGFVPDGDQVLCQGCSQAGP
B3: in assay [3], the binding entry is on record as “binds”.

The values are drawn from publication PMC11984401.
